These are yes or no findings as the source states them, for the method shown. Binding seen in cells or lysates may run through a third protein. Here binding means that the protein was enriched with, or labelled near, the bait; the list need not be complete. Where a sequence is shown, tags or fusion partners need not be part of it.
T1: AtALKBH9B:GFP (proUBQ10::AtALKBH9B:GFP) (Arabidopsis (Col-0 cDNA)) (UniProt Q9SL49)
T1 sequence: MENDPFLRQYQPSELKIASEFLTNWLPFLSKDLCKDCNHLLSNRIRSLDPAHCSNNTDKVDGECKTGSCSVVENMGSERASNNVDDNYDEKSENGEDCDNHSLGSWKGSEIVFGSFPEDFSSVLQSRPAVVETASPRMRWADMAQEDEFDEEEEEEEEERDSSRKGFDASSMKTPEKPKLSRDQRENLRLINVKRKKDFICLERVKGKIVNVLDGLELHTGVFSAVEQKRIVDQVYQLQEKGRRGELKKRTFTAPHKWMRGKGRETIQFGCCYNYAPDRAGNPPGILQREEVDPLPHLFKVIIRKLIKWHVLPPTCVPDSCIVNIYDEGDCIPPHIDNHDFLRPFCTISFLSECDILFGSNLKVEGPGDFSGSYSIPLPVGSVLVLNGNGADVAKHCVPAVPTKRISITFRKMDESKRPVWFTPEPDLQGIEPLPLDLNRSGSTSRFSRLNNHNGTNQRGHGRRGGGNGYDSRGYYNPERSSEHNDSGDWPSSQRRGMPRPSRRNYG


Molecular target: T1, AtALKBH9B:GFP (proUBQ10::AtALKBH9B:GFP) (Arabidopsis (Col-0 cDNA))
Experiment: affinity purification with mass spectrometry

| binding | Binder |
| --- | --- |
| binds | ECT2 (protein, UniProt Q9LJE5 1-667) MATVAPPADQATDLLQKLSLDSPAKASEIPEPNKKTAVYQYGGVDVHGQVPSYDRSLTPMLPSDAADPSVCYVPNPYNPYQYYNVYGSGQEWTDYPAYTNPEGVDMNSGIYGENGTVVYPQGYGYAAYPYSPATSPAPQLGGEGQLYGAQQYQYPNYFPNSGPYASSVATPTQPDLSANKPAGVKTLPADSNNVASAAGITKGSNGSAPVKPTNQATLNTSSNLYGMGAPGGGLAAGYQDPRYAYEGYYAPVPWHDGSKYSDVQRPVSGSGVASSYSKSSTVPSSRNQNYRSNSHYTSVHQPSSVTGYGTAQGYYNRMYQNKLYGQYGSTGRSALGYGSSGYDSRTNGRGWAATDNKYRSWGRGNSYYYGNENNVDGLNELNRGPRAKGTKNQKGNLDDSLEVKEQTGESNVTEVGEADNTCVVPDREQYNKEDFPVDYANAMFFIIKSYSEDDVHKSIKYNVWASTPNGNKKLAAAYQEAQQKAGGCPIFLFFSVNASGQFVGLAEMTGPVDFNTNVEYWQQDKWTGSFPLKWHIVKDVPNSLLKHITLENNENKPVTNSRDTQEVKLEQGLKIVKIFKEHSSKTCILDDFSFYEVRQKTILEKKAKQTQKQVSEEKVTDEKKESATAESASKESPAAVQTSSDVKVAENGSVAKPVTGDVVANGC |
| binds | ECT1 (protein, UniProt Q3MK94 1-428) MAGAASSDRLVTSFPLLDTADLFQDLSLGSDANEVPMNFTKGSFQHPYGHAPYGASSHGSERRPNMNAGNLLNGGDSIGSYPWGYIPANYPSGGYPDPRFGYDRNSNHSSFSHLMNPHSSQEVPSFDQLGYNDHLYSNHGLYGLYGNVIDSGHAYGTFGYDSWKLGRGWYPVDGYRKTRSFNHGRGYSDEKADRLNELCRGPRSSDFKNPQVLNSSMLDAMKQDVSAVDLQRYNGENFPESFVKAKFFVIKSYSEDDVHNCIKYGAWSSTPTGNKKLNAAYYEAKENSQECPVYLLFSVNASGQFVGLAEMVGPVDFNKTMEYWQQDKWIGCFPVKWHIIKDIPNSLLRHITLANNENKPVTNSRDTQEVNLEHGTKIIKIFKEYMSKTCILDDYKFYETRQKIIRDKKIKQKKQALDGASGETINLS |
